{
  "source": "paper PMC10535268",
  "about": "“Design, Synthesis, and Evaluation of Novel Indole Hybrid Chalcones and Their Antiproliferative and Antioxidant Activity” (Molecules, 2023)",
  "data": [
    {"system": "Jurkat", "test": "MTT antiproliferative assay, Jurkat", "type": "cell-based, human", "values": [
      {"molecule": "N.N.[Cl][Pt][Cl]", "note": "[Cisplatin, reference compound]", "selectivity index [IC50(MCF-10A)/IC50(Jurkat cells)]": 4},
      {"molecule": "CCOc1[nH]c2ccccc2c1/C=C/C(=O)c1ccccc1F", "note": "[11e, (2E)-3-(2′-ethoxy-1′H-indol-3′-yl)-1-(2″-fluorophenyl)prop-2-en-1-one]", "selectivity index [IC50(MCF-10A)/IC50(Jurkat cells)]": "> 11"},
      {"molecule": "COn1cc(/C=C/C(=O)c2ccccc2F)c2ccccc21", "note": "[11c, (2E)-1-(2″-Fluorophenyl)-3-(1′-methoxy-1′H-indol-3′-yl)prop-2-en-1-one]", "selectivity index [IC50(MCF-10A)/IC50(Jurkat cells)]": "> 11"},
      {"molecule": "O=C(/C=C/c1c[nH]c2ccccc12)c1ccccc1F", "note": "[11a, (2E)-1-(2″-Fluorophenyl)-3-(1′H-indol-3′-yl)prop-2-en-1-one]", "selectivity index [IC50(MCF-10A)/IC50(Jurkat cells)]": "> 11"}
    ]}
  ]
}
